{
  "sequences": {"note": "By UniProt entry, the sequences of proteins in these tests, tags left out. Where a name states a change or a piece, a line headed by the entry shows the natural chain unless it says otherwise.", "UniProt P18054": "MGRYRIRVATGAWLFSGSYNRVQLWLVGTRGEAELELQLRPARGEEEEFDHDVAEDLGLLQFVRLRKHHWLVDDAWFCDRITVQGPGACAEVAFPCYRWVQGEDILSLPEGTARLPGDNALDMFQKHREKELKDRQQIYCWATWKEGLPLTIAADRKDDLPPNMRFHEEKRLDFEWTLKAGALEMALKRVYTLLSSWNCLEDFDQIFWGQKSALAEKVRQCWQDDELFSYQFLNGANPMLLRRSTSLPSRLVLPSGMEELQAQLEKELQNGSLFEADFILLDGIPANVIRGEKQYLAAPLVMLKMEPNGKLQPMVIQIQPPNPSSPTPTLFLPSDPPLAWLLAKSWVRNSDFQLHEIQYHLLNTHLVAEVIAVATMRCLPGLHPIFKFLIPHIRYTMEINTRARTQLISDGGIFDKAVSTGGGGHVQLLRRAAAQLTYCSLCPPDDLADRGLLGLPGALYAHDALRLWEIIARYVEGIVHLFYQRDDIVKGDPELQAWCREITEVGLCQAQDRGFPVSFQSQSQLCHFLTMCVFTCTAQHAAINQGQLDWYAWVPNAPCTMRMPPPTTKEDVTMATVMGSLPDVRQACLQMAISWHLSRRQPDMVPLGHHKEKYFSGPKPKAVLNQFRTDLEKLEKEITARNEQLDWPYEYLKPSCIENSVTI"},
  "source": "PubChem BioAssay AID1671190",
  "about": "(National Center for Advancing Translational Sciences (NCATS), 2021)",
  "note": "About 6,100 (1.1%) of roughly 580,000 compounds were called active. The inconclusive results got no clear call from the source; some entries with a clear call stand among them for comparison. The call rests on the fitted dose curve; in most records, active means well fitted inhibition curve with a large enough effect; inconclusive means small, poorly fitted or top-dose-only effect, or another doubt; inactive means no such curve, though single readings can be large or run the other way. Potencies of inconclusive entries are doubtful fits and often do not repeat. On the % scale 0 is the no-effect control and ±100 the full control effect; potency means the concentration at half of the fitted maximal effect.",
  "data": [
    {"target": "Polyunsaturated fatty acid lipoxygenase ALOX12 (Homo sapiens) (UniProt P18054)", "assay": "Primary qHTS assay for inhibitors of human arachidonate 12S-lipoxygenase (ALOX12): Round 2", "conditions": "purified 12hLO, xylenol orange hydroperoxide absorbance; activity change, negative = inhibition: at 108 µM (top of the series) unless noted", "outline": "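Purified human 12hLO (150 nM final) in 25 mM Hepes, 0.01% Triton X-100, pH 7.0 was preincubated 15 min at room temperature with compound. Then 40 uM arachidonic acid was added, 30 min. Hydroperoxide was read by Fe-XO absorbance ratio 573/405 nm.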", "values": [
      {"smiles": "CCn1c(=S)[nH]c2c(=O)n(C)c(=O)n(C)c21", "activity change, negative = inhibition": "inactive: -21.3%"},
      {"smiles": "Cc1nc(SCC(=O)Nc2ccccc2)c2oc3ccccc3c2n1", "Potency": "inconclusive: 50.1 µM [inhibitor, partial curve, poor fit]"},
      {"smiles": "Cc1cc(C)c(S(=O)(=O)N2CCOC2CNC(=O)C(=O)NCCN(C)C)c(C)c1", "note": "(stereo not drawn)", "Potency": "inconclusive: 31.6 µM [inhibitor, partial curve, poor fit]"},
      {"smiles": "Cc1ccc(S(=O)(=O)Nc2ccccc2C(O)c2ccccc2)cc1", "note": "(stereo not drawn)", "Potency": "inconclusive: 7.94 µM [inhibitor, partial curve, poor fit]"},
      {"smiles": "Cc1onc(-c2ccccc2Cl)c1C(=O)Nc1cccc(C(=O)NC2CC2)c1", "Potency": "inconclusive: 100 µM [inhibitor, partial curve, poor fit]"},
      {"smiles": "CCOC(=O)CN1C(C(=O)c2ccccc2)=C(OC(=O)CC)c2ccccc2S1(=O)=O", "Potency": "inconclusive: 4.47 µM [inhibitor, full curve, poor fit]"},
      {"smiles": "CCC(=O)N1CCc2cc(OC)c(OC)cc2C1COc1ccccc1OC", "note": "(stereo not drawn)", "Potency": "inconclusive: 100 µM [inhibitor, partial curve, poor fit]"},
      {"smiles": "COc1ccc(-c2cc(C)no2)cc1S(=O)(=O)NCc1cccs1", "Potency": "inconclusive: 22.4 µM [inhibitor, full curve, poor fit]"},
      {"smiles": "NC(=O)c1cccc(-c2ccnc3c2CC(C(=O)NCCc2ccccc2)O3)c1", "note": "(stereo not drawn)", "Potency": "inconclusive: 112 µM [inhibitor, single point]"},
      {"smiles": "COC(=O)C1=CNC=C(C(=O)OC)C1c1ccccc1Cl", "Potency": "inconclusive: 63.1 µM [inhibitor, partial curve, poor fit]"},
      {"smiles": "CCc1cccc(NC(=O)CN2Cc3ccccc3C2=O)c1", "Potency": "inconclusive: 2.51 µM [inhibitor, full curve, poor fit]"},
      {"smiles": "CCCn1cnc2c1CN(S(=O)(=O)c1ccc(C#N)cc1)[C@H](C(=O)OC)C2", "Potency": "inconclusive: 7.08 µM [inhibitor, full curve]"},
      {"smiles": "CCc1cc2c(=O)c(Oc3ccc(F)cc3)c(C(F)(F)F)oc2cc1OC(C)=O", "Potency": "inconclusive: 39.8 µM [inhibitor, partial curve, poor fit]"},
      {"smiles": "COC(=O)c1ccc2c(=O)n(Cc3ccc4c(c3)OCO4)c(=S)[nH]c2c1", "activity change, negative = inhibition": "inactive: 6.06%"},
      {"smiles": "O=S(=O)(c1ccc2ccccc2c1)N1CCN(C(=S)Nc2ccccc2F)CC1", "Potency": "inconclusive: 4.47 µM [inhibitor, partial curve, poor fit]"},
      {"smiles": "CCN(CC)CCCN(Cc1cc2cc3c(cc2[nH]c1=O)OCO3)C(=S)Nc1ccc(OC)cc1", "Potency": "inconclusive: 5.01 µM [inhibitor, full curve, poor fit]"},
      {"smiles": "COc1cc(Nc2cc3[nH]c(-c4ccccn4)cc3cn2)cc(C(F)(F)F)c1", "activity change, negative = inhibition": "inactive: -28.6%"},
      {"smiles": "CCN(C(=O)COC(=O)c1cccnc1)c1cccc2ccccc12", "activity change, negative = inhibition": "inactive: -10.6%"},
      {"smiles": "CC(=O)OC1CCC2(C)C(CCC3C2CC(=NO)C2(C)C(C(C)OC(C)=O)CCC32)C1", "note": "(stereo not drawn)", "Potency": "inconclusive: 79.4 µM [inhibitor, partial curve, poor fit]"},
      {"smiles": "CNC(=O)c1cc(-c2ccc(O)c(F)c2)cc2c1OCCN2Cc1cccnc1", "activity change, negative = inhibition": "inactive: 27% [at 176 µM]"},
      {"smiles": "Cc1c(CCC(C)C)c(=O)oc2cc(OCCC(C)C)ccc12", "activity change, negative = inhibition": "inactive: -2.32%"},
      {"smiles": "Cc1ccc2nc(SCC(=O)Nc3ccc(F)cc3F)[nH]c2c1", "activity change, negative = inhibition": "inactive: -19.2%"},
      {"smiles": "CN(CC(=O)Nc1cccc(F)c1)C(=O)c1cccc(C(=O)N(C)CC(=O)Nc2cccc(F)c2)n1", "Potency": "inconclusive: 4.47 µM [inhibitor, full curve, poor fit]"},
      {"smiles": "Cc1ccc2nc(N(CCCN(C)C)C(=O)c3ccc4c(c3)CCCC4)sc2c1", "Potency": "inconclusive: 79.4 µM [inhibitor, partial curve, poor fit]"},
      {"smiles": "C1CSC2(N1)C1CC3CC(C1)CC2C3", "note": "(stereo not drawn)", "Potency": "inconclusive: 35.5 µM [inhibitor, partial curve, poor fit]"},
      {"smiles": "O=C(COC(=O)c1nn(-c2ccccc2C(F)(F)F)cc1O)c1ccc(OC(F)F)cc1", "activity change, negative = inhibition": "inactive: -1.16%"},
      {"smiles": "COc1cccc(C(=O)c2cn(CC(=O)NCc3ccccc3Cl)c3nc(C)ccc3c2=O)c1", "Potency": "inconclusive: 126 µM [inhibitor, partial curve, poor fit]"},
      {"smiles": "C#CCNC(=O)C1=C[C@H](c2cn(C(C)=O)c3ccccc23)[C@@H](CCCO)[C@H](OCC)O1", "Potency": "inconclusive: 112 µM [inhibitor, partial curve, poor fit]"},
      {"smiles": "O=C(OCc1ccccc1F)c1ccc2c(c1)OCCO2", "Potency": "inconclusive: 0.501 µM [inhibitor, full curve, poor fit]"},
      {"smiles": "O=C(NNc1ccc(-c2csnn2)cc1)c1cc(Cl)cc(Cl)c1", "Potency": "inconclusive: 31.6 µM [inhibitor, partial curve, poor fit]"},
      {"smiles": "CCCOc1cccc(C2c3c(oc4ccccc4c3=O)C(=O)N2c2nncs2)c1", "note": "(stereo not drawn)", "Potency": "inconclusive: 50.1 µM [inhibitor, partial curve, poor fit]"},
      {"smiles": "COc1ccccc1Cn1c(C(C)C)nc2ccccc21", "Potency": "inconclusive: 89.1 µM [inhibitor, single point]"},
      {"smiles": "O=C(NCc1cccc(Cl)c1)c1ccc(S(=O)(=O)Nc2cccc(C(F)(F)F)c2)cc1", "activity change, negative = inhibition": "inactive: 10.7%"},
      {"smiles": "CCC(C)N(CCCNC(=O)Cn1nc(Cc2cccnc2)c2ccccc2c1=O)Cc1ccco1", "note": "(stereo not drawn)", "activity change, negative = inhibition": "inactive: 4.76%"},
      {"smiles": "Cc1ccccc1-c1cncnc1N1CCN(C)CC1", "Potency": "inconclusive: 1.12 µM [inhibitor, full curve, poor fit]"},
      {"smiles": "Nc1sc(Cc2ccccc2)cc1C(=O)c1c(-c2ccccc2)[nH]c2ccccc12", "Potency": "inconclusive: 39.8 µM [inhibitor, partial curve]"},
      {"smiles": "CCOC(=O)Cc1ccc(NC(=O)Nc2nnc(N3CCCC(C)C3)s2)cc1", "note": "(stereo not drawn)", "activity change, negative = inhibition": "inactive: 20.3%"},
      {"smiles": "COc1ccc(C)cc1NC(=O)C(Sc1nnc(-c2cccs2)o1)c1ccccc1", "note": "(stereo not drawn)", "activity change, negative = inhibition": "inactive: 8.02%"},
      {"smiles": "O=c1c(Cl)c(Cl)cnn1-c1ccccc1", "activity change, negative = inhibition": "inactive: -2.99%"},
      {"smiles": "S=c1[nH]nc(-c2ccccn2)n1/N=C/c1ccc(-c2ccccc2Cl)o1", "Potency": "inconclusive: 39.8 µM [inhibitor, partial curve]"},
      {"smiles": "COc1ccccc1N1CCN(C(=O)c2oc3ccccc3c2C)CC1", "activity change, negative = inhibition": "inactive: -3.35%"},
      {"smiles": "CCCOc1cccc(C2/C(=C(/O)c3ccccc3)C(=O)C(=O)N2CCN(C)C)c1", "note": "(stereo not drawn)", "Potency": "inconclusive: 44.7 µM [inhibitor, partial curve, poor fit]"},
      {"smiles": "O=C(Nc1cccc(-c2cn3cccnc3n2)c1)c1cc(Br)ccc1Cl", "activity change, negative = inhibition": "inactive: -24.5%"},
      {"smiles": "O=C(CN1C(=O)COc2ccc(S(=O)(=O)NC3CCCC3)cc21)Nc1ccc(Cl)cc1", "Potency": "inconclusive: 112 µM [inhibitor, partial curve, poor fit]"},
      {"smiles": "Cc1c(C(=O)N(C)C)sc2nc(-c3ccccn3)[nH]c(=O)c12", "activity change, negative = inhibition": "inactive: -17.5%"},
      {"smiles": "CC1CCCC(NC(=O)Cn2cc3c(n2)CCCCC3)C1C", "note": "(stereo not drawn)", "Potency": "inconclusive: 5.62 µM [inhibitor, full curve, poor fit]"},
      {"smiles": "CCOc1ccc(-c2cc(C(=O)NCCOC)[nH]n2)c(C)c1", "Potency": "inconclusive: 31.6 µM [inhibitor, single point]"},
      {"smiles": "Cc1oc(CSCCSCc2cc(C(=O)O)c(C)o2)cc1C(=O)O", "Potency": "inconclusive: 10 µM [inhibitor, partial curve, poor fit]"},
      {"smiles": "Cn1c(-n2cccc2)c(-c2c(-c3ccccc3)[nH]c3c2c(=O)[nH]c(=O)n3C)c(=O)[nH]c1=O", "activity change, negative = inhibition": "inactive: -3.85%"},
      {"smiles": "CN1CCN(C(=O)[C@@H]2CCC[C@@H](NCc3cccc(Cl)c3)CN(C)C(=O)C2)CC1", "activity change, negative = inhibition": "inactive: 13.6% [at 176 µM]"},
      {"smiles": "Cc1nnc(N2C(=O)c3cccc4c([N+](=O)[O-])ccc(c34)C2=O)s1", "Potency": "inconclusive: 89.1 µM [inhibitor, partial curve, poor fit]"},
      {"smiles": "Cc1ccc(C(=O)Nc2nnc(CC(=O)N/N=C/c3ccncc3)s2)cc1", "activity change, negative = inhibition": "inactive: 1.8%"},
      {"smiles": "Cc1nnc(Nc2ccccc2F)s1", "Potency": "inconclusive: 112 µM [inhibitor, single point]"},
      {"smiles": "O=C(COC(=O)c1cccs1)c1ccccc1", "activity change, negative = inhibition": "inactive: 0%"},
      {"smiles": "O=C(CCS(=O)(=O)c1ccc2c(c1)NC(=O)CS2)NCc1ccccc1", "activity change, negative = inhibition": "inactive: -6.01%"},
      {"smiles": "Cc1nc2cc(NC(=O)c3cc(F)cc(F)c3)ccc2o1", "Potency": "inconclusive: 39.8 µM [inhibitor, single point]"},
      {"smiles": "Cc1coc2cc3oc(=O)c(CC(=O)N(C)CC(=O)O)c(C)c3cc12", "Potency": "inconclusive: 39.8 µM [inhibitor, partial curve, poor fit]"},
      {"smiles": "COc1cccc(/C=C(/C#N)c2ccc(C(F)(F)F)cn2)c1", "Potency": "inconclusive: 50.1 µM [inhibitor, partial curve, poor fit]"},
      {"smiles": "O=C(NCc1ccc(Cl)cc1)c1ccn2cncc2c1", "activity change, negative = inhibition": "inactive: 59.4% [at 176 µM]"},
      {"smiles": "CC(=O)Nc1c2c(nn1-c1ccc(Cl)cc1)CSC2", "Potency": "inconclusive: 100 µM [inhibitor, single point]"},
      {"smiles": "O=C(CSc1nnc(-c2ccncc2)o1)Nc1ccccc1Cl", "activity change, negative = inhibition": "inactive: 0.705%"},
      {"smiles": "O=C1/C(=C/c2cccnc2)SC(=S)N1CC1CCCO1", "note": "(stereo not drawn)", "activity change, negative = inhibition": "inactive: -7.63%"},
      {"smiles": "Cc1ccc2c(c1)N(CC(=O)c1cn(C)c3ccccc13)C(=O)CO2", "Potency": "inconclusive: 44.7 µM [inhibitor, partial curve, poor fit]"},
      {"smiles": "CC1CCN(C(=O)c2ccccc2OCC2CCCN(Cc3ccccn3)C2)CC1", "note": "(stereo not drawn)", "Potency": "inconclusive: 1.41 µM [inhibitor, full curve]"},
      {"smiles": "Cc1ccc(C(OCC(O)CNC(CO)C(O)c2ccc([N+](=O)[O-])cc2)c2ccccc2)cc1", "note": "(stereo not drawn)", "Potency": "inconclusive: 4.47 µM [inhibitor, full curve, poor fit]"},
      {"smiles": "Cc1csc(/C(C#N)=C\\c2cccc3c2OCCCO3)n1", "activity change, negative = inhibition": "inactive: 8.65%"},
      {"smiles": "O=C(O)CC1S/C(=N\\N=C2CCCCCC2)N(c2ccccc2)C1=O", "note": "(stereo not drawn)", "activity change, negative = inhibition": "inactive: 0%"},
      {"smiles": "Cc1ccc(OCC(=O)N2CCC[C@H]2c2nc(-c3ccc(C)cc3)no2)cc1", "Potency": "inconclusive: 35.5 µM [inhibitor, full curve]"}
    ]}
  ]
}
